At least one peptide structure holds a part that was inferred or is arguable (an end, a ring closure or a residue). Non-standard residues stand in square brackets, D forms with d. Residues, ends and D or L forms follow the SMILES beside them. pGlu = O=C1CC[C@@H](C(=O)O)N1
System: luciferase-transfected MIAPaCa-2 xenograft tumors
Assay: Human pancreatic cancer xenograft in female athymic nude mice
Type: in vivo
Source text: MIAPaCa-2, a cell line expressing the LHRH receptor, was then used for in vivo experiments. We stably transfected MIAPaCa-2 cells with a gene encoding luciferase. We used the transfected cells to produce a pancreatic cancer xenograft mouse model.
Forty-eight female nude mice (athymic Balb/c, 4-5 weeks old) were obtained from a commercial vendor (Charles River Laboratories, Wilmington, Mass.), and caged individually in a room maintained at constant temperature and humidity under a 12-h light and darkness cycle, and fed a regular, autoclaved chow diet with water ad libitum. […]
After the tumors were established (100-250 mm^3), the 48 mice were randomized into six different treatment groups (n=8 mice per group): (1) LHRH alone, (2) LHRH-Curcumin, (3) LHRH-Phor21, (4) unconjugated LHRH and Phor21, (5) vehicle control, and (6) a control group of tumor-bearing mice that were necropsied before treatment (baseline controls). […] Tumor volumes and mice body weights were measured twice weekly, and mice were necropsied one week after the last treatment. At necropsy, tumors, ovaries, kidneys, pancreases, lungs, spleen, several bones, and liver were removed and weighed, and metastastic cell numbers were measured by luciferase assay. The tumor volumes and weights were analyzed by one-way ANOVA, and compared among groups using an unpaired Student's t-test. […]

In the case of CC(C)C[C@H](NC(=O)CNC(=O)[C@H](Cc1ccc(O)cc1)NC(=O)[C@H](CO)NC(=O)[C@H](Cc1c[nH]c2ccccc12)NC(=O)[C@H](Cc1c[nH]cn1)NC(=O)[C@@H]1CCC(=O)N1)C(=O)N[C@@H](CCCNC(=N)N)C(=O)N1CCC[C@H]1C(=O)NCC(=O)N[C@@H](CCCCN)C(=O)N[C@@H](Cc1ccccc1)C(=O)N[C@@H](C)C(=O)N[C@@H](CCCCN)C(=O)N[C@@H](Cc1ccccc1)C(=O)N[C@@H](C)C(=O)N[C@@H](CCCCN)C(=O)N[C@@H](CCCCN)C(=O)N[C@@H](Cc1ccccc1)C(=O)N[C@@H](C)C(=O)N[C@@H](CCCCN)C(=O)N[C@@H](Cc1ccccc1)C(=O)N[C@@H](C)C(=O)N[C@@H](CCCCN)C(=O)N[C@@H](CCCCN)C(=O)N[C@@H](Cc1ccccc1)C(=O)N[C@@H](C)C(=O)N[C@@H](CCCCN)C(=O)N[C@@H](Cc1ccccc1)C(=O)N[C@@H](C)C(=O)N[C@@H](CCCCN)C(=O)O [LHRH-Phor21] ([pGlu]HWSYGLRPGKFAKFAKKFAKFAKKFAKFAK-OH; C-terminus assumed), the “growth of the pancreatic cancer cell xenografts” value (vs baseline control group, FIG. 5(A)) is reported as “complete cessation of growth” and the “final tumor volume on day 47” value (vs vehicle and LHRH groups, P<0.05, FIG. 5(B)) is reported as “significantly smaller”.

Reference: patent US9937260B2, “Curcumin conjugates for treating and preventing cancers” (BOARD OF SUPERVISORS OF LOUISIANA STATE UNIVERSITY AND …, priority 2008, dated 2018)
